Measured data: PubChem BioAssay AID1259308 (NCATS, 2017)

- Assay: 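Candidate targets for better recombinant protein yield in mammalian cells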 (primary screen)
- System: human HEK293 embryonic kidney cells stably expressing firefly luciferase (HEK-CMV-Luc2-Hygro)
- Reagents: single siRNA against human genes, 0.8 pmol siRNA per well
- Time to read-out: 72 h
- Measurement: 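Reporter luminescence and viable-cell signal on separate replicate plates, given as percent of non-targeting control and median/MAD z-scores, plus per-cell luciferase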
- Reading the numbers: total luciferase, z-score and total luciferase, % of control: higher = more reporter protein produced
- Rule for the call: 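Active when the median/MAD z-score for overall luciferase is greater than 3; a gene was taken forward for validation with new siRNAs if at least two of its three siRNAs passed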
- Meaning of the calls: active = raised luciferase; inactive = no rise
Here is an unselected part of about 59,000 deposited reagents. About 1,510 of all reagents (2.6%) were called active. 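Calls use total luciferase alone and ignore viability, so some active siRNAs may act by altering cell number.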 A number with no mark means an inactive call. The numbers tell different reagents against one gene apart. Further read-outs or replicates are left out here.

With RASL11B (RAS like family 11 member B) #1, what does the deposit list?
total luciferase, z-score: 0.179; total luciferase, % of control: 85.4

With RASL11B (RAS like family 11 member B) #2, how do the results read?
total luciferase, z-score: -0.518; total luciferase, % of control: 71.6

For RASL11B (RAS like family 11 member B) #3, what was measured?
total luciferase, z-score: -0.642; total luciferase, % of control: 69.1

What did the screen give for FABP5P1 (fatty acid binding protein 5 pseudogene 1) #1?
total luciferase, z-score: 1.89; total luciferase, % of control: 120

With FABP5P1 (fatty acid binding protein 5 pseudogene 1) #2, what does the deposit list?
total luciferase, z-score: 1.65; total luciferase, % of control: 115

How did the screen score FABP5P1 (fatty acid binding protein 5 pseudogene 1) #3?
total luciferase, z-score: 0.211; total luciferase, % of control: 86.1

For TAC3 (tachykinin precursor 3) #1, how do the results read?
total luciferase, z-score: 0.185; total luciferase, % of control: 85.6

Which result is listed for TAC3 (tachykinin precursor 3) #2?
total luciferase, z-score: 1.7; total luciferase, % of control: 116

What did the screen give for TAC3 (tachykinin precursor 3) #3?
total luciferase, z-score: -0.284; total luciferase, % of control: 76.2

What is on record for RAB3A (RAB3A, member RAS oncogene family) #1?
total luciferase, z-score: -1.26; total luciferase, % of control: 56.8

With RAB3A (RAB3A, member RAS oncogene family) #2, how do the results read?
total luciferase, z-score: 0.283; total luciferase, % of control: 87.5

Which result is listed for RAB3A (RAB3A, member RAS oncogene family) #3?
total luciferase, z-score: -0.529; total luciferase, % of control: 71.4

What is on record for CALHM5 (calcium homeostasis modulator family member 5) #1?
total luciferase, z-score: 1.98; total luciferase, % of control: 121

With CALHM5 (calcium homeostasis modulator family member 5) #2, what does the deposit list?
total luciferase, z-score: 1.71; total luciferase, % of control: 116

What is on record for CALHM5 (calcium homeostasis modulator family member 5) #3?
total luciferase, z-score: -2.11; total luciferase, % of control: 40

How did the screen score TMEM39B (transmembrane protein 39B) #1?
total luciferase, z-score: 5.21 (active); total luciferase, % of control: 185

How did the screen score TMEM39B (transmembrane protein 39B) #2?
total luciferase, z-score: 0.359; total luciferase, % of control: 89

For TMEM39B (transmembrane protein 39B) #3, what does the deposit list?
total luciferase, z-score: -0.0104; total luciferase, % of control: 81.7

Which result is listed for CCNB3 (cyclin B3) #1?
total luciferase, z-score: -0.305; total luciferase, % of control: 75.8

How did the screen score CCNB3 (cyclin B3) #2?
total luciferase, z-score: -1.19; total luciferase, % of control: 58.2

For CCNB3 (cyclin B3) #3, what was measured?
total luciferase, z-score: 0.592; total luciferase, % of control: 93.7
